This test addresses T1, Nrg1-Myc13 (S. cerevisiae) (UniProt Q03125).
T1 sequence: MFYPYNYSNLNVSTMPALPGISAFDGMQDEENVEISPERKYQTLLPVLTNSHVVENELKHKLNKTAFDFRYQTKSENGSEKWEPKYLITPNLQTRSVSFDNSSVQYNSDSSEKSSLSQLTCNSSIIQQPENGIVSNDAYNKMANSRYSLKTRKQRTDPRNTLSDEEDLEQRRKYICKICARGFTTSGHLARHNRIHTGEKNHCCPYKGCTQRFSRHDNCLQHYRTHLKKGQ
Briefly: co-IP; extracts of the double-tagged RTG3-TAP NRG1-Myc13 strain (2000 or 4000 µg protein) precipitated with anti-Myc13 antibody 9E11 on protein A/G agarose, 2 h at 4°C, five washes (HEPES 50 mM, NaOAc 200 mM, NP-40 0.25%); Western blot with anti-TAP; cells grown on MM with glucose or ethanol and with GABA or proline, with or without alanine (1-7 mM).

No constants are given. Whether binding was seen depends on the method and setting. Binding seen in cells or lysates may run through a third protein. Some results given as binding are weak or reduced against the parent protein; the word gives no strength. Tags and fused reporters may be left off the sequences shown.

B1: Rtg3-TAP (protein, UniProt P38165 1-486)
chain: MMNNNESEAENQRLLDELMNQTKVLQETLDFSLVTPTPHHNDDYKIHGSAYPGGETPAQQHEKLSYINTHNSNDNNNLMGSQARSNSQTPTASTIYEEAESQSSYLDDMFRTSQGGRPVTQNSISSIGQGPLRSSYSMAYDSPVDRAMNTPLQQQEGLKAELPHDFLFQHGTDDTMYNLTDDLSSSLSSSINSDMMTPNTYSSSFSYNPQSLGPASVSSTYSPKVRSPSSSFRAGSFLSSSFRHGSINTPRTRHTSISSNMTENIGPGSVPKILGGLTSDEKLRRKREFHNAVERRRRELIKQKIKELGQLVPPSLLNYDDLGKQIKPNKGIILDRTVEYLQYLAEILEIQARKKKALLAKIKELEEKKSSVAALSPFTNNHHASSGQNNSENSEERIIDIRSVPNALMNEQNSKAELHNWEPPLYDSVGNHNHAGTMESHPHTNIHEELKEFLSGDLIEAEDNAKLMFGDDNSNPADYLLEFGSG
As to B1, the binding entry is “binds”.

For the origin of these results see paper PMC10618058.
